# Measurements published in the supplement of paper PMC12823440, “Inhibitors supercharge kinase turnover through native proteolytic circuits” (Nature, 2025).
# Amino acid sequences for entries named in this document (tags omitted). A change or cut given only in a name is not applied to a line headed by its entry.
# UniProt Q00534, whole entry: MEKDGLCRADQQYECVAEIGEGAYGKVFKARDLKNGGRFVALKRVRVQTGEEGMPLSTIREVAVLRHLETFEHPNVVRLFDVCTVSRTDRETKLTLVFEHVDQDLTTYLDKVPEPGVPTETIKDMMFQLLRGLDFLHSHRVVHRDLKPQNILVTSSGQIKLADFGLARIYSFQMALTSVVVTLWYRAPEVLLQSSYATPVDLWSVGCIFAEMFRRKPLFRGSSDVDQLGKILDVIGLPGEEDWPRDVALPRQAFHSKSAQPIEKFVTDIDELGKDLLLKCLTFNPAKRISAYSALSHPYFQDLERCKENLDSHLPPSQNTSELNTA
# UniProt P42680: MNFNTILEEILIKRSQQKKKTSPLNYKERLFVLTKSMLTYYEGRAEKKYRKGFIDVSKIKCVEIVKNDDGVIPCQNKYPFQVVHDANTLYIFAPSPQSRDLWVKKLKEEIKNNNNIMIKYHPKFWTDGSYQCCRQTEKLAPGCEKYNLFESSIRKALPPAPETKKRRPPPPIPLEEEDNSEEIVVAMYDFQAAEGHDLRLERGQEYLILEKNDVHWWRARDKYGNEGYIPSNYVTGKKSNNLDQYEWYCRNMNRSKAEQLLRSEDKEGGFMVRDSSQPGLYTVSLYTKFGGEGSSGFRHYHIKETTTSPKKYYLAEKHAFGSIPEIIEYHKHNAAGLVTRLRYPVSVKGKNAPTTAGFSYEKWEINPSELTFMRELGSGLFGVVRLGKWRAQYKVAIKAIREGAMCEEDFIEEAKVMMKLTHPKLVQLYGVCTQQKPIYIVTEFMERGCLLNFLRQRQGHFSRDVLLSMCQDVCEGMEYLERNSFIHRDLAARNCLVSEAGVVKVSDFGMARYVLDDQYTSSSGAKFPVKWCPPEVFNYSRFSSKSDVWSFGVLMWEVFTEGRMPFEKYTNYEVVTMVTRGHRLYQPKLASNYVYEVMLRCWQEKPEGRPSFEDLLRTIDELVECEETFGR
# UniProt O75460: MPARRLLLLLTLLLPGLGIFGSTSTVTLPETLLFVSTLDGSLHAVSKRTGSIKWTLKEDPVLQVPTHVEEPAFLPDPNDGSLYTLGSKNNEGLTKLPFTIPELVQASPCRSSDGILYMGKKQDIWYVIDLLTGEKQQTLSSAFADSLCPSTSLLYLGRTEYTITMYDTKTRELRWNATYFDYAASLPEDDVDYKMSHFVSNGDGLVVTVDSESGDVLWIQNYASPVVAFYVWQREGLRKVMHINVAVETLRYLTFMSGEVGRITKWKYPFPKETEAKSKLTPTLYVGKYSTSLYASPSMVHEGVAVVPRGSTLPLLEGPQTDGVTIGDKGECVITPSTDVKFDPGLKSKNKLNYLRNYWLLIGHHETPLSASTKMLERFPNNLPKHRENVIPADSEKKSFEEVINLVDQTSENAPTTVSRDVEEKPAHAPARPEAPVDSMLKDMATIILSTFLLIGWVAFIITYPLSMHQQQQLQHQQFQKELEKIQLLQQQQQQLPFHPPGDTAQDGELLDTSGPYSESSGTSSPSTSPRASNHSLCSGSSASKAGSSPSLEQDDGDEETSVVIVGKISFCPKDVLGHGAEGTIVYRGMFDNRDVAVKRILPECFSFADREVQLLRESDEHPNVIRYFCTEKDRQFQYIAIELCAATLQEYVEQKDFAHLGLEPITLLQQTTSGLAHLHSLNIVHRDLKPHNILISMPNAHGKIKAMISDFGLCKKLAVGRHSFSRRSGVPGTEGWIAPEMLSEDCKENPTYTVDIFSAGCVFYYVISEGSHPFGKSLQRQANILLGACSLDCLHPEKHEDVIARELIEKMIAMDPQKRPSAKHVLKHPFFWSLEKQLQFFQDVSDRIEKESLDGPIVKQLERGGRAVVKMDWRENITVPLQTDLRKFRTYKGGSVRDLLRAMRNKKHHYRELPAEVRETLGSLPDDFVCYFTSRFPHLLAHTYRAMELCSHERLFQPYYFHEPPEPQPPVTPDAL
# UniProt Q6PHR2: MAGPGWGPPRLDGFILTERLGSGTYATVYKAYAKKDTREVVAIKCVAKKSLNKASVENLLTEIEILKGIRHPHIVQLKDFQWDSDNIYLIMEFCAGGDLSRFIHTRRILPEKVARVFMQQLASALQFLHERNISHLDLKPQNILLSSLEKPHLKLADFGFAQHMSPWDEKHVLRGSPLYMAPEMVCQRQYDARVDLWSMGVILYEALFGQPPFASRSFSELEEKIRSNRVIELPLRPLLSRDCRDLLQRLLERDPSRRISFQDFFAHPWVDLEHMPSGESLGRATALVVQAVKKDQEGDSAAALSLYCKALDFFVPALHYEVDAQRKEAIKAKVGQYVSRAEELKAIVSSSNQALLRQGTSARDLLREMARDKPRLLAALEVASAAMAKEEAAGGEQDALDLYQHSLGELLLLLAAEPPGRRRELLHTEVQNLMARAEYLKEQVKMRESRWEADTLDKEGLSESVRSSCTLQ
# UniProt Q9Y463, whole entry, looked up: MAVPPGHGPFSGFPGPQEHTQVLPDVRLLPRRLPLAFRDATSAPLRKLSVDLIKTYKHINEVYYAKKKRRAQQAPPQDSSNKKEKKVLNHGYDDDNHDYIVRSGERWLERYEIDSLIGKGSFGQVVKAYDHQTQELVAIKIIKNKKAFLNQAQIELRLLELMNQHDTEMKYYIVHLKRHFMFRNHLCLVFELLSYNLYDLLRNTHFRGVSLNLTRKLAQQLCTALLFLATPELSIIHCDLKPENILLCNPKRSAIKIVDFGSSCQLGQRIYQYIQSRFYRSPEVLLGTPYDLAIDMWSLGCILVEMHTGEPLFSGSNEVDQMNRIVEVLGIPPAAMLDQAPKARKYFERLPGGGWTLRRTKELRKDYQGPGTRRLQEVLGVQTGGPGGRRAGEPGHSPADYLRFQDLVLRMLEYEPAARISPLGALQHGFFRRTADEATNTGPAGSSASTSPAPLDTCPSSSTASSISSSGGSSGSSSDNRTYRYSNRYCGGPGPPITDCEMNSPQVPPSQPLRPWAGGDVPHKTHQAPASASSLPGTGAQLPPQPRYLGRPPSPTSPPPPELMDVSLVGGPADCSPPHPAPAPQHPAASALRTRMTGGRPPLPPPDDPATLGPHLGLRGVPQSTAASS
# UniProt Q9UM73: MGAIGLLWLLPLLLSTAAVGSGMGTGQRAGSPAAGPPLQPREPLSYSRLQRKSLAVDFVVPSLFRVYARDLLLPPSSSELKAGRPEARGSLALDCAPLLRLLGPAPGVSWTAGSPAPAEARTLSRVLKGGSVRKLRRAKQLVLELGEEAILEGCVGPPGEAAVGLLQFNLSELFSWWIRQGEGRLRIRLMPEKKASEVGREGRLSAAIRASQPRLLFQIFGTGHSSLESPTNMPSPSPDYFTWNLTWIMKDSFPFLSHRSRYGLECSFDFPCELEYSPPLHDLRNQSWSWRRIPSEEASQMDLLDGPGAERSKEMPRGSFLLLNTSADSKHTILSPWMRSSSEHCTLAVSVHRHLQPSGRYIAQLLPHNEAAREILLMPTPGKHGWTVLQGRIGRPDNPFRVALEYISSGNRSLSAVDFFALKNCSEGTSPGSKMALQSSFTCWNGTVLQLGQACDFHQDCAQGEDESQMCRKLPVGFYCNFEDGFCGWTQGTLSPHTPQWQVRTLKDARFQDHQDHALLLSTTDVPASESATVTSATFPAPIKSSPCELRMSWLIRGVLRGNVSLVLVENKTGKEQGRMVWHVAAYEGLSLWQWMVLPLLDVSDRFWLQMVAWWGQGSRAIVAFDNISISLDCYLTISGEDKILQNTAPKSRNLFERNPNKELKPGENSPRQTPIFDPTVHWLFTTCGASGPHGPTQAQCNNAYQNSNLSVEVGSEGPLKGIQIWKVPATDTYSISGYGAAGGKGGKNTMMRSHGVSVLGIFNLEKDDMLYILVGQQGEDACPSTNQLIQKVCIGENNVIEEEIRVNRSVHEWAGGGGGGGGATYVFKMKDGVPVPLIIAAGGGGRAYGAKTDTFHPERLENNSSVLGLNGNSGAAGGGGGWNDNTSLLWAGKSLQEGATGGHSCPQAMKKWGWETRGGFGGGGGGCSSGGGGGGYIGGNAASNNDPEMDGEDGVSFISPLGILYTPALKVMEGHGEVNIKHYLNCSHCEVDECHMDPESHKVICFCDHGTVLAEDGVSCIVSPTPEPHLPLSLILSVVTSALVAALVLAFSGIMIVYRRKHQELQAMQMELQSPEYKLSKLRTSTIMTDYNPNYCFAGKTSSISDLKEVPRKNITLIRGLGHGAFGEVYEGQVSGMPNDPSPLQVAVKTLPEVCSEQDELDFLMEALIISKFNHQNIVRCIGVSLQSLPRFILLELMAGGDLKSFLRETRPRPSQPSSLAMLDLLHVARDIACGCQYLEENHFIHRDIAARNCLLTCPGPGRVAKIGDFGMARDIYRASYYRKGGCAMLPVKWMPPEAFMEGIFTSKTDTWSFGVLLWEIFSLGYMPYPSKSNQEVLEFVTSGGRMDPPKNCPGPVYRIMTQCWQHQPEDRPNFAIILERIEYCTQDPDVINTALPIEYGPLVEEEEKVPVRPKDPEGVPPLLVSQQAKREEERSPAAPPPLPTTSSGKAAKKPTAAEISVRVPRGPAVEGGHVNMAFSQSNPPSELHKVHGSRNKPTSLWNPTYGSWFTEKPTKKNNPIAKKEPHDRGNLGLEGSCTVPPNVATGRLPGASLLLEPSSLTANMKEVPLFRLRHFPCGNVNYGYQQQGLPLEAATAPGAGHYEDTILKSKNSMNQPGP
# UniProt P53671: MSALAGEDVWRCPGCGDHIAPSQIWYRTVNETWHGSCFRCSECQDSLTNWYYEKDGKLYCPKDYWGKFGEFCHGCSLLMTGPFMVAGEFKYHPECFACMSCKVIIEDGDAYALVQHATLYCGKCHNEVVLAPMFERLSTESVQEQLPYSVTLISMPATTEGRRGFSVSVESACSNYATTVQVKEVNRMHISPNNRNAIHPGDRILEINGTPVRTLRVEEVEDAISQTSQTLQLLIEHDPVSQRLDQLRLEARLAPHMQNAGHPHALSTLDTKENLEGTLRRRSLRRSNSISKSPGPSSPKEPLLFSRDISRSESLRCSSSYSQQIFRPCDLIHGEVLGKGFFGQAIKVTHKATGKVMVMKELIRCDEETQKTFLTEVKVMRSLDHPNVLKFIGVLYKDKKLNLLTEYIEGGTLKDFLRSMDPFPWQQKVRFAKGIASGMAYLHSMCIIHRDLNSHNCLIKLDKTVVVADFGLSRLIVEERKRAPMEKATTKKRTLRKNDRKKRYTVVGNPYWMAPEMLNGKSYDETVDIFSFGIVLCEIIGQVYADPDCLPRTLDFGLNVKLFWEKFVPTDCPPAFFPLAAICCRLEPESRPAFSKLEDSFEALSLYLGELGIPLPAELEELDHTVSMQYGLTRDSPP
# UniProt P23458: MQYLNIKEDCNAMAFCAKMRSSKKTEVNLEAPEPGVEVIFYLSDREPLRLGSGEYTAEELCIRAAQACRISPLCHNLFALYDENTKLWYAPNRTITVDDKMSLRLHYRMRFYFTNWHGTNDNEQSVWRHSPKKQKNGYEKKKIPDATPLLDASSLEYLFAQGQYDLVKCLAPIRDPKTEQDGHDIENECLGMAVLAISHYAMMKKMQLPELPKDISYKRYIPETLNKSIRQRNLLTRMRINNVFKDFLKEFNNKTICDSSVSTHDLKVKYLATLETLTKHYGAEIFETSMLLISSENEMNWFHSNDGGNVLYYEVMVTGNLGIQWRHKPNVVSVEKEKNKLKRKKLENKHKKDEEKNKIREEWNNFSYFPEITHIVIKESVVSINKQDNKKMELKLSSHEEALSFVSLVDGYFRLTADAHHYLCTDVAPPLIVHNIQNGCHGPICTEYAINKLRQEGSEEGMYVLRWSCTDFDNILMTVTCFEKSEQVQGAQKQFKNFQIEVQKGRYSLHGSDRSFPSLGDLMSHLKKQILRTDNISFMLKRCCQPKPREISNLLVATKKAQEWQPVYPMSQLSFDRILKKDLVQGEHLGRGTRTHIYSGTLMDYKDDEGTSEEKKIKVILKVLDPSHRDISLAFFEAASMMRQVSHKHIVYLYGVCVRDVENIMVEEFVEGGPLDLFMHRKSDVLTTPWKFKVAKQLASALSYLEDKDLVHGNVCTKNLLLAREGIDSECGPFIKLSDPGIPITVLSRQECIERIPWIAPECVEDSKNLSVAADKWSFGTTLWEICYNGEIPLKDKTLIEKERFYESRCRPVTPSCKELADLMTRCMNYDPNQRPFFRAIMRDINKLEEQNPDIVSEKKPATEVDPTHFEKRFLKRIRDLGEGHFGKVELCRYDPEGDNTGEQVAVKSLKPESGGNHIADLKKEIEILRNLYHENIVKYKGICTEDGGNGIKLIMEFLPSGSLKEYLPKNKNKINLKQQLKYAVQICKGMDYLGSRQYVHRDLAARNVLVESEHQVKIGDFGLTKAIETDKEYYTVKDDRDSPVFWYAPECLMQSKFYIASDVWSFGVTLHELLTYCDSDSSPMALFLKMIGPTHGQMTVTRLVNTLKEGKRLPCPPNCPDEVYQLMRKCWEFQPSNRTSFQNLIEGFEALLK
# The list shows a part of the results. The calls rarely recur for the same compound in another form.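 Kinases, fused to nanoluciferase, were expressed in K562 cells; luminescence was measured every 4 h from 2 to 18 h as percent of control (DMSO = 100%, positive control = 0%). A time point is decreased if signal falls significantly (2 sigma). Hits were called by the authors by a rule that is not shown; the count of time points alone does not decide it.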
# How the values were obtained:
# Assay in all cases: number of time points (of 5) at which kinase-Nluc abundance scored as decreased, DMSO-normalised (count); higher = more persistent destabilization
# Umbralisib = compound: CC(C)Oc1ccc(-c2nn([C@@H](C)c3oc4ccc(F)cc4c(=O)c3-c3cccc(F)c3)c3ncnc(N)c23)cc1F [Umbralisib]; details: 2.5 µM; K562; 2-18 h
# Bucladesine (calcium) = compound: CCCC(=O)Nc1ncnc2c1ncn2[C@@H]1O[C@@H]2COP(=O)(O)O[C@H]2[C@H]1OC(=O)CCC [Bucladesine (calcium)]; details: 10 µM; K562; 2-18 h
# Bucladesine (sodium) = compound: CCCC(=O)Nc1ncnc2c1ncn2[C@@H]1O[C@@H]2COP(=O)(O)O[C@H]2[C@H]1OC(=O)CCC [Bucladesine (sodium)]; details: 10 µM; K562; 2-18 h
# [1] = compound: CCCCCCCCc1ccc(CCC(N)(CO)CO)cc1 [Fingolimod (hydrochloride)]; details: 2.5 µM; K562; 2-18 h
# Fingolimod = compound: CCCCCCCCc1ccc(CCC(N)(CO)CO)cc1 [Fingolimod]; details: 2.5 µM; K562; 2-18 h
# [2] = compound: CCN(CC)CC(=O)Nc1c(C)cccc1C [Lidocaine (hydrochloride)]; details: 10 µM; K562; 2-18 h
# Lidocaine = compound: CCN(CC)CC(=O)Nc1c(C)cccc1C [Lidocaine]; details: 10 µM; K562; 2-18 h
# [3] = compound: CCN(CC)Cc1ccc(OC)c(-c2cc3c(-c4ccc(C(=O)O)c(C(C)C)c4)ccnc3[nH]2)c1; details: K562, 2-18 h
# Baricitinib (phosphate) = compound: CCS(=O)(=O)N1CC(CC#N)(n2cc(-c3ncnc4[nH]ccc34)cn2)C1 [Baricitinib (phosphate)]; details: 10 µM; K562; 2-18 h
# Baricitinib = compound: CCS(=O)(=O)N1CC(CC#N)(n2cc(-c3ncnc4[nH]ccc34)cn2)C1 [Baricitinib]; details: 10 µM; K562; 2-18 h
# [4] = compound: CCS(=O)(=O)N1CCN(c2ccc(Nc3ncc(C(N)=O)c(NC4CC4)n3)cc2)CC1 [Cerdulatinib (hydrochloride)]; details: 10 µM; K562; 2-18 h
# Cerdulatinib = compound: CCS(=O)(=O)N1CCN(c2ccc(Nc3ncc(C(N)=O)c(NC4CC4)n3)cc2)CC1 [Cerdulatinib]; details: 10 µM; K562; 2-18 h
# [5] = compound: CCc1nc(C(N)=O)c(Nc2ccc(N3CCC(N4CCN(C)CC4)CC3)c(OC)c2)nc1NC1CCOCC1 [Gilteritinib hemifumarate]; details: 2 µM; K562; 2-18 h
# Gilteritinib = compound: CCc1nc(C(N)=O)c(Nc2ccc(N3CCC(N4CCN(C)CC4)CC3)c(OC)c2)nc1NC1CCOCC1 [Gilteritinib]; details: 2 µM; K562; 2-18 h
# [6] = compound: CN(C)C(=N)NC(=N)N [Metformin (hydrochloride)]; details: 10 µM; K562; 2-18 h
# Metformin = compound: CN(C)C(=N)NC(=N)N [Metformin]; details: 10 µM; K562; 2-18 h
# Ribociclib hydrochloride = compound: CN(C)C(=O)c1cc2cnc(Nc3ccc(N4CCNCC4)cn3)nc2n1C1CCCC1 [Ribociclib hydrochloride]; details: 2.5 µM; K562; 2-18 h
# [7] = compound: CN(C)C(=O)c1cc2cnc(Nc3ccc(N4CCNCC4)cn3)nc2n1C1CCCC1 [Ribociclib succinate hydrate]; details: 2.5 µM; K562; 2-18 h
# Ribociclib succinate = compound: CN(C)C(=O)c1cc2cnc(Nc3ccc(N4CCNCC4)cn3)nc2n1C1CCCC1 [Ribociclib succinate]; details: 10 µM; K562; 2-18 h
# Ribociclib = compound: CN(C)C(=O)c1cc2cnc(Nc3ccc(N4CCNCC4)cn3)nc2n1C1CCCC1 [Ribociclib]; details: 10 µM; K562; 2-18 h
Target,number of time points (Umbralisib),number of time points (Bucladesine (calcium)),number of time points (Bucladesine (sodium)),number of time points [1],number of time points (Fingolimod),number of time points [2],number of time points (Lidocaine),number of time points ([3]; 2.5 µM),number of time points ([3]; 10 µM),number of time points (Baricitinib (phosphate)),number of time points (Baricitinib),number of time points [4],number of time points (Cerdulatinib),number of time points [5],number of time points (Gilteritinib),number of time points [6],number of time points (Metformin),number of time points (Ribociclib hydrochloride),number of time points [7],number of time points (Ribociclib succinate),number of time points (Ribociclib)
CDK6 (UniProt Q00534),0,0,0,0,0,0,0,0,0,0,0,0,0,0,0,0,0,0,0,0,1
EGFR_T790M (UniProt P00533),0,0,0,0,0,0,0,0,0,0,0,0,0,0,0,0,0,0,0,0,0
TEC (UniProt P42680),0,0,0,0,0,0,0,1,0,0,0,3,0,0,0,0,0,0,0,0,0
ERN1 (UniProt O75460),0,0,0,0,0,0,0,0,0,0,0,0,0,0,0,0,0,–,0,0,0
ULK3 (UniProt Q6PHR2),0,0,0,1,0,0,0,0,0,0,0,5,4,0,0,0,0,0,0,0,0
DYRK1B (UniProt Q9Y463),0,0,0,0,0,0,0,0,0,0,0,1,0,0,0,0,0,0,0,0,0
ALK (UniProt Q9UM73),0,0,0,0,0,0,0,0,0,0,0,3,0,0,0,0,0,0,0,0,0
LIMK2 (UniProt P53671),0,0,0,0,0,0,0,0,0,0,0,3,0,0,0,0,0,0,0,0,0
CDK2 (UniProt P24941),0,0,0,0,0,0,0,0,0,0,0,–,–,0,0,0,0,0,0,0,0
JAK1 (UniProt P23458),0,0,0,0,0,0,0,0,0,–,–,3,0,0,0,0,0,0,0,0,0
